Test results reported in patent publication US7521540B2, “CYR61 compositions and methods” (Munin Corporation, priority 1996, dated 2009).
Some of these results come from one statement about several compounds together.

B1: H1: Cyr61 variant, lysine/arginine of heparin-binding motif at residues 280-290 replaced with alanine (protein)
chain: TCPAACHCPLEAPKCAPGVGLVRDGCGCCKVCAKQLNEDCSKTQPCDHTKGLECNFGASSTALKGICRAQSEGRPCEYNSRIYQNGESFQPNCKHQCTCIDGAVGCIPLCPQELSLPNLGCPNPRLVKVSGQCCEEWVCDEDSIKDSLDDQDDLLGLDASEVELTRNNELIAIGKGSSLKRLPVFGTEPRVLFNPLHAHGQKCIVQTTSWSQCSKSCGTGISTRVTNDNPECRLVKETRICEVRPCGQPVYSSLKKAGAACSATAKPEPVRFTYAGCSSVKKYRPKYCGSCVDGRCCTPLQTRTVKMRFRCEDGEMFSKNVMMIQSCKCNYNCPHPNEASFRLYSLFNDIHKFRD
B2: H2: Cyr61 variant, heparin-binding motif at residues 305-310 replaced with alanine (protein)
chain: TCPAACHCPLEAPKCAPGVGLVRDGCGCCKVCAKQLNEDCSKTQPCDHTKGLECNFGASSTALKGICRAQSEGRPCEYNSRIYQNGESFQPNCKHQCTCIDGAVGCIPLCPQELSLPNLGCPNPRLVKVSGQCCEEWVCDEDSIKDSLDDQDDLLGLDASEVELTRNNELIAIGKGSSLKRLPVFGTEPRVLFNPLHAHGQKCIVQTTSWSQCSKSCGTGISTRVTNDNPECRLVKETRICEVRPCGQPVYSSLKKGKKCSKTKKSPEPVRFTYAGCSSVVAAYAPYCGSCVDGRCCTPLQTRTVKMRFRCEDGEMFSKNVMMIQSCKCNYNCPHPNEASFRLYSLFNDIHKFRD

Test system: 1064SK primary human foreskin fibroblasts
Experiment: Fibroblast adhesion assay (methylene blue, A620)
Type: cell-based
Method: The ability of Cyr61 to mediate cell adhesion in normal fibroblasts was investigated. Microtiter wells were coated with purified recombinant Cyr61 protein, and 1064SK primary human foreskin fibroblasts were allowed to adhere under serum-free conditions. […] 50 μl cell suspensions were plated on microtiter wells coated with varying concentrations (0.5-5.0 μg/ml) of Cyr61 protein. After incubation at 37° C. for 30 minutes, adherent cells were fixed and stained with methylene blue.
In another experiment, microtiter wells were coated with either BSA, Cyr61 (2 μg/ml), or vitronectin (VN; 0.5 μg/ml) and blocked with affinity-purified anti-Cyr61 antibodies for one hour at 37° C. before 1064SK cells were plated.
The effects of divalent cations in cell adhesion to Cyr61 was also investigated. […] Data are means from triplicate determinations. […] Inhibition by Ca^2+ is characteristic of adhesion through some members of the β1 family of integrins, including receptors that bind type I collagen, laminin, and vitronectin (integrins α2β1, α6β1, and αVβ1) in fibroblasts, as well as the lymphocyte-specific integrin αLβ2.
The effects of RGD peptides on Cyr61-mediated fibroblast binding was tested by plating cells in wells coated with Cyr61 (2 μg/ml). […]
The 1064 SK cells were also analyzed using the monoclonal antibody JBIA, which binds the β1 integrin subunit. […]

| Molecule | coating concentration at which maximal adhesion was reached [µg/mL] |
| --- | --- |
| B1 | 2.5 to 5.0 |
| B2 | 2.5 to 5.0 |
